Reference: PubChem BioAssay AID2058 (Sanford-Burnham Center for Chemical Genomics, 2009)
Out of some 290,000 compounds screened, about 150 (0.052%) were called active. The shares of active, inactive and inconclusive entries below differ from those in the screen.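 The calls were made as follows: active = inhibition of at least 50% with at least 30 cells and total cytoplasm GFP at most 10,000,000; inconclusive = under 30 cells or total GFP of 10,000,000 plus; inactive = the rest.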

The chains behind the UniProt entries cited, without tags or fusion partners. Where a name states a change or a piece, a line headed by the entry shows the natural chain unless it says otherwise.
UniProt Q9HC97: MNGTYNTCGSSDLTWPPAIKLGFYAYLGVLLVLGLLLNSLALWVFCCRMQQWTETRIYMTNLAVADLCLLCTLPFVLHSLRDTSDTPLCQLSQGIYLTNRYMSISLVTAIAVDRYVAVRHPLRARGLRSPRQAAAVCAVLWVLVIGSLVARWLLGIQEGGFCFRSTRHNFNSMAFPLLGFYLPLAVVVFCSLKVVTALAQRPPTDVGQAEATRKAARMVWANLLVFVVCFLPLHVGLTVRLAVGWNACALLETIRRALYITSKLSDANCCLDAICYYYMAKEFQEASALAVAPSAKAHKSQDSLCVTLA

These molecules were tested against G-protein coupled receptor 35 (Homo sapiens) (UniProt Q9HC97) (assay: GPR35 antagonists blocking zaprinast-driven arrestin recruitment, primary screen, imaging, U2OS, beta-arrestin-GFP, zaprinast agonist (AID 2058)). Conditions: U2OS GPR35 beta-arrestin-GFP translocation imaging, zaprinast antagonism; at 10 µM; active compounds read high.

inhibition, inconclusive:
COc1cc(CNCCN2CCOCC2)ccc1OCC(=O)NC(C)(C)C -2.9%
N#C/C(=C/c1ccc(N2CCCCC2)o1)C(=O)Nc1ccc(Cl)cc1 91.2%
CCC(C)NC(=O)CSc1nc2ccccc2c(=O)n1-c1c(C)n(C)n(-c2ccccc2)c1=O (stereo unspecified) -9.3%
O=C(NCCc1ccccc1)C(=S)N1CCCCC1 8.2%
CSCCNC(=O)c1cccc(Cl)c1 13%
Cc1ccccc1N(CC(=O)NC1CCCC1)C(=O)C1(C)CC(=O)N=C2C=CC=CN21 (stereo unspecified) 2.9%
CCCN1C(=O)/C(=C/c2ccc(N3CCCC3)c(C)c2)NC1=S 97.8%
COc1cc2cc(CN(Cc3cccs3)C(=S)Nc3ccc(C)cc3)c(=O)[nH]c2cc1OC -16.8%
Cc1cc(=O)oc2c3c4c(cc12)OCCN4CCC3 119%
N#C/C(=C/c1ccc(N2CCCCC2)o1)C(=O)NCCc1c[nH]c2ccccc12 122%
O=C(c1cnn2c(C(F)(F)F)cc(-c3ccccc3)nc12)N1CCCCC1c1cccnc1 (stereo unspecified) 19%
Cc1cc2nc(SCCN3CCOCC3)[nH]c2cc1C 11.4%
CCCCN1/C(=C/c2ccc3ccccc3[n+]2CC)Sc2ccccc21 114%
CC[n+]1c(/C=C/C=C/N(C(C)=O)c2ccccc2)sc2cc(OC)ccc21 120%
CCN1/C(=C/c2ccc3cc(C)ccc3[n+]2CC)Sc2ccccc21 120%
CCCCOc1ccc(CONS(=O)(=O)c2ccc(NC(C)=O)cc2)cc1Cl -0.3%
Cc1cccc(NC(=O)c2csnn2)n1 6.8%
COc1ccc(C2CC(c3cccs3)=NN2C(=O)COC(=O)C2CCCCC2)cc1OC (stereo unspecified) -31.7%
O=C(CSc1nnc(Cc2cc(=O)[nH]c(=O)[nH]2)n1-c1ccccc1)N1CCCc2ccccc21 -33%
CCCN1C(=O)/C(=C/C=C2\N(CC)c3ccccc3C2(C)C)SC1=S 46.8%
CCN1/C(=C\c2ccc3cc(C)ccc3[n+]2CC)Sc2cc(C)c(C)cc21 117%
CN(c1ccccc1)c1ccc(/C=c2\s/c(=C(/C#N)C(=O)C(C)(C)C)n(Cc3ccco3)c2=O)cc1 83.4%
Cc1ccc2c(CN3CCC(C(N)=O)CC3)cc(=O)oc2c1C 9.1%
CCOc1nc(NC(=O)NC(=O)c2ccccc2)nc(-c2ccccc2)n1 -12.8%
COc1ccc(C(CC(=O)Nc2ccccc2OC)n2cccc2)cc1 (stereo unspecified) -3.8%
COc1ccccc1CN=Cc1[nH]c2ccc(Br)c(Cl)c2c1O 115%
CCCc1nc2ccccc2c(C(=O)OCC(=O)N2CCc3ccccc32)c1CC 15.5%

Retrieved by compound from the list above, four records:
inhibition, inconclusive:
N#C/C(=C/c1ccc(N2CCCCC2)o1)C(=O)NCCc1c[nH]c2ccccc12 122%
COc1cc(CNCCN2CCOCC2)ccc1OCC(=O)NC(C)(C)C -2.9%
CCCc1nc2ccccc2c(C(=O)OCC(=O)N2CCc3ccccc32)c1CC 15.5%
CCOc1nc(NC(=O)NC(=O)c2ccccc2)nc(-c2ccccc2)n1 -12.8%

Next part.

inhibition, active:
COc1cc(/C=C2/SC(=S)N(Cc3ccccc3)C2=O)cc(Cl)c1O 74.4%
CCOc1ccc(CN2CCN(Cc3cccc4nonc34)CC2CCO)cc1 (stereo unspecified) 97.5%
COc1ccc(C(=O)/C=C/C(=O)N(CC(=O)NC2CCCCC2)CC2CCCO2)c(O)c1 (stereo unspecified) 69.1%
O=C(NCc1nnc(SCc2ccc(C(F)(F)F)cc2)n1-c1ccccc1)C12CC3CC(CC(C3)C1)C2 89.4%
CCN1CC=C2C(C#N)=C(N)C(C#N)(C#N)[C@H](c3cccc(OC)c3OC)[C@H]2C1 100%
CSc1nc(Cl)c(C#N)c(-c2ccc(C)cc2)n1 61.8%
CC(/C=C1\SC(=S)N(CCCC(=O)Nc2ccc(C(=O)O)cc2)C1=O)=C\c1ccccc1 114%
O=S(=O)(Nc1ccc(N=Nc2ccc(O)c3ccccc23)cc1)c1ccccc1 70.3%
CC(=C\c1ccccc1)/C=C1/SC(=O)N(CCCC(=O)Nc2ccc(C(=O)O)cc2)C1=O 108%
CN1CC=C2C(C#N)=C(N)C(C#N)(C#N)C(Cc3ccccc3)C2C1 (stereo unspecified) 53.4%
CCN1CC=C2C(C#N)=C(N)C(C#N)(C#N)C(CCc3ccccc3)C2C1 (stereo unspecified) 90.4%
O=Cc1[nH]c2ccccc2c1N(C(=O)CCl)c1ccc([N+](=O)[O-])cc1 80.7%
COC(=O)c1sc(N2C(=O)C(O)=C(C(=O)c3ccc(C)o3)C2c2ccc(F)cc2)nc1C (stereo unspecified) 100%
CCC(NC(=O)NC1CCCCC1)c1ccccc1 (stereo unspecified) 103%
CN1CC=C2C(C#N)=C(N)C(C#N)(C#N)[C@H](c3ccoc3)[C@H]2C1 74.6%

inhibition, inactive:
CCOC(=O)CC1C(=O)NCCN1c1nc2ccc(C)cn2c(=O)c1/C=C1\SC(=S)N(CC(C)C)C1=O (stereo unspecified) 21.7%
CCCN1C(=O)/C(=C/c2c(N3CCNC(=O)C3CC(=O)OC)nc3c(C)cccn3c2=O)SC1=S (stereo unspecified) 12.4%
O=C(CCn1cccn1)Nc1ccc2c(c1)OCCO2 18.7%
COC(=O)c1cnn(-c2ccc(Cl)cc2)c1/C=N/NC(N)=S 7%
O=c1[nH]cnc2sc3c(c12)CN(Cc1ccccc1)CC3 -2.4%
Nc1ccc(S(=O)(=O)NC(Cc2ccccc2)C(=O)O)cc1 (stereo unspecified) -10.2%
O=C(CCCN1C(=O)/C(=C\c2cccs2)SC1=S)Nc1ccc(C(=O)O)cc1 13.3%
Cc1ccc(C(=O)N(CC(=O)NC2CCCC2)c2ccccc2C)s1 4.4%
Cc1ccc2nc(/C(C#N)=C/c3ccccc3C(=O)O)[nH]c2c1 -7.1%
COc1ccc(C2=NOC(C(=O)Nc3cccc(O)c3)C2)cc1 (stereo unspecified) -13.8%
CC(=O)Nc1sc(N/N=C\c2ccc(O)cc2)nc1-c1cccs1 -8.9%
CCN(C(=O)C(C)OC(=O)C1C(C(=O)OC)=C(C)NC(C)=C1C(=O)OC)c1ccccc1 (stereo unspecified) -20.3%
CCCOC(=O)c1ccc(Nc2cc(C)nc3ncnn23)cc1 11.5%
CCCCOC(=O)c1ccc(NC(=O)c2cc(Cl)c(Cl)cc2C(=O)O)cc1 -5.9%
